Data on two substances can be found in publication PMC11134608, “UBR5 forms ligand-dependent complexes on chromatin to regulate nuclear hormone receptor stability” (Molecular cell, 2023).

Amino acid sequences for entries named in this document (tags omitted). A change or cut given only in a name is not applied to a line headed by its entry.
UniProt O95071: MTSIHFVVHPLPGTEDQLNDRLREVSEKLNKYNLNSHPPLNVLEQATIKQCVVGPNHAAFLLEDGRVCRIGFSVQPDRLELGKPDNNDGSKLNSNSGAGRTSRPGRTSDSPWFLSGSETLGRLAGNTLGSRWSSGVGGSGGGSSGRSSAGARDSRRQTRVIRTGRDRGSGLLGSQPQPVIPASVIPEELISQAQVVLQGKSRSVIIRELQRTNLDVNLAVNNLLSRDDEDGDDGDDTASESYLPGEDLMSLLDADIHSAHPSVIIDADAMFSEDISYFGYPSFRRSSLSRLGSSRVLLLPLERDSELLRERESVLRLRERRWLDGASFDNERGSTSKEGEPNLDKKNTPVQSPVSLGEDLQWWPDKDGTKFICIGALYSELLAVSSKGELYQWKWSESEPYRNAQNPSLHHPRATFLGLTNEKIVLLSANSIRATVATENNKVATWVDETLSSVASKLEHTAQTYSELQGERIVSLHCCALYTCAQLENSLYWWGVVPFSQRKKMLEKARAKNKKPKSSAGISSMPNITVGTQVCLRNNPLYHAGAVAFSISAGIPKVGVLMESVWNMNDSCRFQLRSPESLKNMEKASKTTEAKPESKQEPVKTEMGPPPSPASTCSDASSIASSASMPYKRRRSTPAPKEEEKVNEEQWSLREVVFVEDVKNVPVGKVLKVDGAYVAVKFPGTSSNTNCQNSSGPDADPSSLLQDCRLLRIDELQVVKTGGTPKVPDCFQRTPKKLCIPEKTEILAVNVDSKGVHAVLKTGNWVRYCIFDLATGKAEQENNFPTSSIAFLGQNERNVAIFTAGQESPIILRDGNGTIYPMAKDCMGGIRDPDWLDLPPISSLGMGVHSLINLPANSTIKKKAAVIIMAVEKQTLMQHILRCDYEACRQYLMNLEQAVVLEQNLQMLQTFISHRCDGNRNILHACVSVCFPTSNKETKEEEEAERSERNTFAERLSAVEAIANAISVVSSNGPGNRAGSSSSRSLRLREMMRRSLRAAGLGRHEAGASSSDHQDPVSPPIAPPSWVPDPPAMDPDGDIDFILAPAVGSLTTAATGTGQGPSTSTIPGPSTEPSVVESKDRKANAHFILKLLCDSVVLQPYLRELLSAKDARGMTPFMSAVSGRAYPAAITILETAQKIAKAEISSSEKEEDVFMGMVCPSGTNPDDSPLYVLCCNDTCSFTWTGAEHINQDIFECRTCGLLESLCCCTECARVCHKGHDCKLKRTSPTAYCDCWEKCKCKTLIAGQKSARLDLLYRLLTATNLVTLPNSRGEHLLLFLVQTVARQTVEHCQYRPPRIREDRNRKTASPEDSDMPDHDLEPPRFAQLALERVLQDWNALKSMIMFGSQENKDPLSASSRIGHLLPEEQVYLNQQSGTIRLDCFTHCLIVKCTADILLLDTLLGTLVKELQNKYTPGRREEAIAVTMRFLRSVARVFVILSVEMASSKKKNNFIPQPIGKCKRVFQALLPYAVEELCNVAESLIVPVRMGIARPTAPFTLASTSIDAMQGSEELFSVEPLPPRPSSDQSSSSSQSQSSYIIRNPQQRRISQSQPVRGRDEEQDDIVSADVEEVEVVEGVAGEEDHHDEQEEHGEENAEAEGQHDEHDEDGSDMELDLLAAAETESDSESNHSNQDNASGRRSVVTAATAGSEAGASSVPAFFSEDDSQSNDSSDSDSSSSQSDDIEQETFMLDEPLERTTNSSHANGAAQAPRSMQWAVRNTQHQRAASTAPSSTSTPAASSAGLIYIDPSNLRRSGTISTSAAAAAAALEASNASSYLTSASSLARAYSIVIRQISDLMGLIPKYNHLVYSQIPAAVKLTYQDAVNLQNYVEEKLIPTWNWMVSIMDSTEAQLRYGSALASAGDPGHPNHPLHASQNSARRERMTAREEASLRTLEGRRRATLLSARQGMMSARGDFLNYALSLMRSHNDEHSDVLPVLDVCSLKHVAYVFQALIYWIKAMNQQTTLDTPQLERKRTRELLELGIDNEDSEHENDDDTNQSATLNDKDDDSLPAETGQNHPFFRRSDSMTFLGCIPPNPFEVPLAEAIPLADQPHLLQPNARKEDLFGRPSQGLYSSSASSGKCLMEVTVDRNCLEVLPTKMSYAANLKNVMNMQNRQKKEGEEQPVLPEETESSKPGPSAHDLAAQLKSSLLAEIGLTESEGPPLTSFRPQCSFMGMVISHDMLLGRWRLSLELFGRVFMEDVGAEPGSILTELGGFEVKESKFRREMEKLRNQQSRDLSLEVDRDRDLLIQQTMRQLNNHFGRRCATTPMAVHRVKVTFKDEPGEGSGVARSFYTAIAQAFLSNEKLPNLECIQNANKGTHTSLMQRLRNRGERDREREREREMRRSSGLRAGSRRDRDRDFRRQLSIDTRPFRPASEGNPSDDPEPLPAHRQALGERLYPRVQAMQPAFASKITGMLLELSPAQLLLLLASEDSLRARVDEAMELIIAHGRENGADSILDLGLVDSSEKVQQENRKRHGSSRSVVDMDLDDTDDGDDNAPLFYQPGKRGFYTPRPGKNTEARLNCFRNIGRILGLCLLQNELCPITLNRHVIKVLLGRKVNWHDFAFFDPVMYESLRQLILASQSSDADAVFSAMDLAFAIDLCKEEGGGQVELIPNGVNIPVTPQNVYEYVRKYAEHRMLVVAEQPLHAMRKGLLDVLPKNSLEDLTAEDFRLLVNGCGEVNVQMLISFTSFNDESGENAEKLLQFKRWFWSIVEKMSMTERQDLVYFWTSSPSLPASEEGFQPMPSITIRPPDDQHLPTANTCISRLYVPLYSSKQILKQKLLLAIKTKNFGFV
UniProt P04150: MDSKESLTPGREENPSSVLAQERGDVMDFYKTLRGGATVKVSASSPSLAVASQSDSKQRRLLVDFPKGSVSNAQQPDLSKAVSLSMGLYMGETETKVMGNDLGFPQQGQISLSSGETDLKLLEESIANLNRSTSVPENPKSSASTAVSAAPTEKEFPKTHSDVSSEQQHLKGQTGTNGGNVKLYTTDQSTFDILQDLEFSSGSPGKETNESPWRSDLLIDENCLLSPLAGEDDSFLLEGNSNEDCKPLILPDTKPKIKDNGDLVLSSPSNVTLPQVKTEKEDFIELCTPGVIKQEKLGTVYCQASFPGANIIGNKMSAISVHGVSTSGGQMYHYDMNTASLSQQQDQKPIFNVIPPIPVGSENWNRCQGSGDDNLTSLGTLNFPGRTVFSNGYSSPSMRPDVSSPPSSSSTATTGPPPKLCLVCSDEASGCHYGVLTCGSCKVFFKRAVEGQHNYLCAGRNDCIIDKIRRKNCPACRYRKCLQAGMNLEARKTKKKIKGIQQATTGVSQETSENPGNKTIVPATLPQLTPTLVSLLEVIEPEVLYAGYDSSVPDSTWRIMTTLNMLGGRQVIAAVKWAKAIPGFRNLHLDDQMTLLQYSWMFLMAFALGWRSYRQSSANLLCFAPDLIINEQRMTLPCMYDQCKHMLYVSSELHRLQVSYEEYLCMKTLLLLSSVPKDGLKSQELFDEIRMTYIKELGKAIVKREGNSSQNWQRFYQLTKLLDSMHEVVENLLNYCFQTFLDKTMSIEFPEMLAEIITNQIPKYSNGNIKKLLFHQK
UniProt P03372: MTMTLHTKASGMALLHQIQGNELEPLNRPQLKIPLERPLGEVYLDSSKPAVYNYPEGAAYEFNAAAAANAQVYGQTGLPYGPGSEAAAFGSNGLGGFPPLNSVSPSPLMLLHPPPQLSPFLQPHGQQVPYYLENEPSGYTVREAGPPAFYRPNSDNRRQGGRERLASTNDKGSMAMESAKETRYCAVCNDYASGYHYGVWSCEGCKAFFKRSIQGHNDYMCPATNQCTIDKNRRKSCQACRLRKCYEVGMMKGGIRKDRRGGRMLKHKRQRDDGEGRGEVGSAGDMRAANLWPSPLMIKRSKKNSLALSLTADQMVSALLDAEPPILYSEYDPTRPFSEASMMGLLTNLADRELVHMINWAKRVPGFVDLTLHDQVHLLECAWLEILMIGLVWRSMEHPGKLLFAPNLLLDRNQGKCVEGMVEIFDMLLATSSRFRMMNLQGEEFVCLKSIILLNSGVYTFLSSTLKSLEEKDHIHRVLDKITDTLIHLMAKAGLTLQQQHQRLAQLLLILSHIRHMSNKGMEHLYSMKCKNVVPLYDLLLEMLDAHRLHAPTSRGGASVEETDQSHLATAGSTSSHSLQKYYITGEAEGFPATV

Results are given in words; binding and its absence hold for the method and conditions named. For part of these data: In cells and extracts the contact can be indirect. Some binding calls cover weakened binding; strength is not graded here.

For test [1], the target named is Full-length human FLAG-UBR5 (human) (UniProt O95071). Briefly: pull-down; as a1 but with 50 μM fulvestrant; both purified.
The target of another test is eGFP-GR reporter (UniProt P04150). Kind of test: co-IP; reporter cells treated with ligand (ATRA, dexamethasone, AR agonist, brilanestrant) for different times; Pierce IP Lysis Buffer with ligand; GFP-Trap Magnetic Agarose beads overnight at 4°C; western blot. A general note: Immunoblotting shows a protein as a band on a membrane.
The target of the next test is ER-eGFP reporter (UniProt P03372). The description is as above.

Turning to “His-tagged ER ligand-binding domain (aa301-552) (from UniProt P03372 301-552) (domain or fragment)”, in test [1], the binding entry is on record as “no binding (condition: with 50 μM fulvestrant)”. In the case of “UBR5 (endogenous, in reporter cell lysates) (from UniProt O95071 1-2799) (enzyme)”, the binding entry with eGFP-GR reporter and in the test with ER-eGFP reporter was “binds” each time.
